From article PMC12139245 come the findings set out here.

Protein sequences, listed by entry. Tags and fused reporters are not part of them.
UniProt Q99JI1: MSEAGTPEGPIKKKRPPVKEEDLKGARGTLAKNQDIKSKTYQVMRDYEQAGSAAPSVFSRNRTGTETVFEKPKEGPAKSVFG
UniProt P11404: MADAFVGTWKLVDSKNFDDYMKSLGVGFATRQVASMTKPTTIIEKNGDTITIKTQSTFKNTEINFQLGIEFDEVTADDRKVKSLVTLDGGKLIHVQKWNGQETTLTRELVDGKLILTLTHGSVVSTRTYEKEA

The test has as its target MUSTN1-mouse-3×FLAG (musculoskeletal embryonic nuclear protein 1) (mouse) (UniProt Q99JI1). In words: affinity purification with mass spectrometry; IP-MS: lysate of transfected cells on anti-FLAG magnetic beads at 4°C overnight, washed with lysis buffer; checked by silver staining and Western blot; HPLC-MS, search with Proteome Discoverer 2.4. (In western blotting, separated proteins are transferred to a membrane and probed.)

No constants are given. Whether binding was seen depends on the method and setting. In cells and extracts the contact can be indirect. Here binding means that the protein was enriched with, or labelled near, the bait; the list need not be complete.

Take “fatty acid binding protein 3 (FABP3) found by IP-MS (from UniProt P11404 1-133)”: the binding result is listed as “binds”.
